In patent publication US20260078196A1:
These are yes or no findings as the source states them, for the method shown. Some entries that bind do so weakly or less than the wild type.

By UniProt entry, the sequences of proteins in these tests, tags left out. Where a name states a change or a piece, a line headed by the entry shows the natural chain unless it says otherwise. Residues count along the entry.
UniProt Q01973: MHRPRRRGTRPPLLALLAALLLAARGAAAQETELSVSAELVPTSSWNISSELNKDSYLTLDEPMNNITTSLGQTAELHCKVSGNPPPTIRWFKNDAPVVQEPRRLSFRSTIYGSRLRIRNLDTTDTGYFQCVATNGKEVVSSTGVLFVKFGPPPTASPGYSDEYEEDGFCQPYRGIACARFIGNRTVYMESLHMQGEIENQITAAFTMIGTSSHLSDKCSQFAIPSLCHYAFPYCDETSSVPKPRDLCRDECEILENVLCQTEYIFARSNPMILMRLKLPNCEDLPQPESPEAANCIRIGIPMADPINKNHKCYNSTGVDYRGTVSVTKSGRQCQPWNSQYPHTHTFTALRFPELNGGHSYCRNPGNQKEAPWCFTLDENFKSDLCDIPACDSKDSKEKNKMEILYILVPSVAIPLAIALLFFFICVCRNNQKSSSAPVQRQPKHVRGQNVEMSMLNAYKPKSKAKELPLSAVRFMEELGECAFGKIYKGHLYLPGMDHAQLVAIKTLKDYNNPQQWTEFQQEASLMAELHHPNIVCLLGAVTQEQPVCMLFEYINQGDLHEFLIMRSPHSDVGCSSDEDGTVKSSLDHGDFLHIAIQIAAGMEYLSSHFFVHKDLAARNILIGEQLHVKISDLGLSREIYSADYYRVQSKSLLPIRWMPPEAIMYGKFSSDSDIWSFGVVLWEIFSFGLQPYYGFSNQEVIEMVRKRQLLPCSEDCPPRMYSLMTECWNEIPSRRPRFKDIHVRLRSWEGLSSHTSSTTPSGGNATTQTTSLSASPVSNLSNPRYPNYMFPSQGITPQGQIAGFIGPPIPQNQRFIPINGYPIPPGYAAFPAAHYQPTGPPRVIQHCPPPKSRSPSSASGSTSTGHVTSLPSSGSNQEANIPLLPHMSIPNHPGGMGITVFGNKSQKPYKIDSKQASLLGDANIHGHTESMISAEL
ROR1 on cells: residues 30-937 of Q01973
ROR1 antigen: residues 30-406 of Q01973
UniProt Q07011: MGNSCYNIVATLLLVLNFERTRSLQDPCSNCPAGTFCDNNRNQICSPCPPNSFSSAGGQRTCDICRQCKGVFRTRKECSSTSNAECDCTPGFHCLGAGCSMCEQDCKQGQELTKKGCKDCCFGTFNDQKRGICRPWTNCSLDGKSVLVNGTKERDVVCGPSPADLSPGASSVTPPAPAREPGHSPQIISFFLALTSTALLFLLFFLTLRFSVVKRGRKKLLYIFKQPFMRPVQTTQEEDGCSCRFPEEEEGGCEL

Columns and labels:
ROR1 on cells [1] = target: ROR1 on cells (UniProt Q01973); assay: flow cytometry (gMFI) on A549 cells
ROR1 on cells [2] = target: ROR1 on cells (UniProt Q01973); assay: flow cytometry, cellular binding to ROR1, before and after humanization
ROR1 antigen [3] = target: ROR1 antigen (UniProt Q01973); assay: epitope binning by Octet (BLI)
ROR1 antigen [4] = target: ROR1 antigen (UniProt Q01973); assay: Octet, ROR1-His (10 ug/ml) on HIS1K sensor, antibodies at 10 ug/mL
4-1BB on cells (human) = 4-1BB on cells (human) (UniProt Q07011); assay: flow cytometry (gMFI) on HEK293-h4-1BB cells

Row | binding (ROR1 on cells [1]) | binding (ROR1 on cells [2]) | binding (ROR1 antigen [3]) | binding (ROR1 antigen [4]) | binding (4-1BB on cells (human)) | Binder
1 | binds | binds | – | – | – | humanized 3C5 anti-ROR1 mAb (antibody, V domains shown) VH: EVQLVESGGGLVKPGGSLRLSCAASGFTFSSYAMSWVRQAPGKRLEWVSSISSGGTTYYPDTVKGRFTISRDNAKNSLYLQMNSLRAEDTAVYYCARDALYYGSSLYYAMDYWGQGTLVTVSS VL: DIQMTQSPSSLSASVGDRVTITCRASQDIYSYLSWFQQKPGKAPKTLIYRANRLVDAVPSRFSGSGSGQDYTLTISSLQPEDFATYYCLQYDEFPYTFGQGTKLEIK
2 | – | – | binds | binds | – | 3C5 (antibody, V domains shown) VH: EVKLVESGGGLVKPGGSLKLSCAASGFTFSSYAMSWVRQTPEKRLEWVSSISSGGTTYYPDTVKGRFTISRDNARNILYLQMSSLRSEDTAMYYCARDSLYYGSSLYYAMDYWGQGTSVTVSS VL: DIKMTQSPSSMYASLGERVSITCRASQDIYSYLSWFQQKPGKSPKTLIYRANRLVDGVPSRFSGSGSGQDYSLTISSLEYEDMGIYYCLQYDEFPYTFGGGTKLEIK
3 | – | – | – | – | binds | 4-1BB VHH (VHH) VHH: QVQLQESGGGLVQPGGSLRLSCAASGYTYSSNCMGWFRQAPGKGLEGVAVICTGGGSPSYADSVKGRFTISRDNAKNTLYLQMNSLRAEDTAVYYCAADLLRAGTPLSSYEFNYWGQGTLVTVSS
4 | – | – | binds | binds | – | 8F2 (antibody, V domains shown) VH: EVQLQQSGPELVKPGASVKMSCKASGYTFTTYVMHWVKQKPGQGLEWIGYINPYNGGIRYNEKFKGKATLTSDKSSSTAYMELSSLTSEDSAVYYCARRERGVYYGMDEWGQGTSVTVSS VL: DVVMTQTPLTLSVTIGQPASISCKSSQSLLHSNGKTYLNWLLQRPGQSPNLLIYLVSKLESGVPDRFSGSGSGTDFTLKISRVEAEDLGVYYCLQATYFPYTFGSGTKLEIK
